The target in assay [1] is His-tagged Luciferase (heat-aggregated on the sensor) (firefly) [luciferase: P08659]. In words: BLI; sequential binding to sensor-bound aggregates: Ydj1 followed by Ssa1 (Fig. S3B); Ydj1-Ssa1 followed by Hsp104 (Fig. S3C); aggregates formed with or without As(III); both purified.
The target is the same in assay [2]. The assay is described as follows: BLI; His-tagged Luciferase heat-aggregated (44 °C) on a Ni-NTA sensor with 0 to the indicated concentrations of As(III) at the aggregation step only; Ssa1 (1.5 μM) and Ydj1 (1 μM) together in solution; buffer A (25 mM Hepes-KOH pH 8, 15 mM magnesium acetate, 75 mM KCl) with 10 mM ATP and 2 mM DTT; 25 °C; both purified. For orientation: In BLI a coated tip is dipped into the sample, and binding shifts an interference pattern.

The chains behind the UniProt entries cited, without tags or fusion partners.
UniProt P25491: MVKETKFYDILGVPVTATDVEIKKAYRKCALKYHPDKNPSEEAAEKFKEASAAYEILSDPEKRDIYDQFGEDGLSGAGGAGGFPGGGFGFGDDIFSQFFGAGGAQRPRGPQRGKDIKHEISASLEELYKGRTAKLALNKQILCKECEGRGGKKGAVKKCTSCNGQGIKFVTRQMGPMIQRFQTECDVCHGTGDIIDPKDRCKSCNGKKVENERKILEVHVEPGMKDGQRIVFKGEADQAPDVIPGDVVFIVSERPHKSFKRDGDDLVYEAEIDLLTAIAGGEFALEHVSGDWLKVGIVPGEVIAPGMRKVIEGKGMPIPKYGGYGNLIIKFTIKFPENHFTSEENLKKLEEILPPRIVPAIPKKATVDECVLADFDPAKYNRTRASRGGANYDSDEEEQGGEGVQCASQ

Results are given in words; binding and its absence hold for the method and conditions named. Some results given as binding are weak or reduced against the parent protein; the word gives no strength.

Take Ydj1 (from UniProt P25491 1-409): the binding entry in assay [1] and in assay [2] was “binds” each time.

The values are drawn from PMC9723941.
